# According to the supplement of paper PMC8728848:
# This is one part of the list.
# Experiments:
# Assay in all cases: glycan array binding signal (z-score within array); higher = stronger binding
# Conditions in all cases: glycan notation: IUPAC condensed, linker removed
# [1] = molecular target: GalNAc3S(b1-4)[Fuc(a1-3)]GlcNAc
# How it was run: (§1)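 From the Consortium for Functional Glycomics database, 3228 arrays were curated, keeping only those whose protein sequence was available. Binding is given as a within-array Z-score averaged across arrays sharing a protein sequence and across linkers. Negative Z-scores can be read as non-binding.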
# [2] = molecular target: GalNAc4S6S(b1-4)GlcNAc
# How it was run: as §1
# [3] = molecular target: GalNAc6S(b1-4)GlcNAc
# How it was run: as §1
# [4] = molecular target: Glc(a1-4)Glc
# How it was run: as §1
# [5] = molecular target: Glc(a1-4)Glc(a1-4)Glc(a1-4)Glc
# How it was run: as §1
# [6] = molecular target: Glc(a1-6)Glc(a1-6)Glc
# How it was run: as §1
# [7] = molecular target: Glc(a1-6)Glc(a1-6)Glc(a1-6)Glc
# How it was run: as §1
# [8] = molecular target: Glc(b1-4)Glc
# How it was run: as §1
# [9] = molecular target: Glc(b1-6)Glc
# How it was run: as §1
# [10] = molecular target: GlcA(b1-3)Gal
# How it was run: as §1
# [11] = molecular target: GlcA(b1-3)GlcNAc
# How it was run: as §1
# [12] = molecular target: GlcA(b1-6)Gal
# How it was run: as §1
# [13] = molecular target: GlcA3S(b1-3)Gal(b1-4)GlcNAc(b1-2)Man
# How it was run: as §1
# [14] = molecular target: GlcA3S(b1-3)Gal(b1-4)GlcNAc(b1-3)Gal(b1-4)Glc
# How it was run: as §1
# [15] = molecular target: GlcNAc(a1-3)Gal(b1-4)GlcNAc
# How it was run: as §1
# [16] = molecular target: GlcNAc(a1-4)Gal(b1-3)GlcNAc
# How it was run: as §1
# [17] = molecular target: GlcNAc(a1-4)Gal(b1-4)GalNAc
# How it was run: as §1
# [18] = molecular target: GlcNAc(a1-4)Gal(b1-4)GlcNAc
# How it was run: as §1
# [19] = molecular target: GlcNAc(a1-4)Gal(b1-4)GlcNAc(b1-3)Gal(b1-4)Glc
# How it was run: as §1
# [20] = molecular target: GlcNAc(a1-4)Gal(b1-4)GlcNAc(b1-3)Gal(b1-4)GlcNAc
# How it was run: as §1
# [21] = molecular target: GlcNAc(a1-4)Gal(b1-4)GlcNAc(b1-3)Gal(b1-4)GlcNAc(b1-3)Gal(b1-4)GlcNAc
# How it was run: as §1
# [22] = molecular target: GlcNAc(a1-4)Gal(b1-4)GlcNAc(b1-3)Gal(b1-4)[Fuc(a1-3)]GlcNAc(b1-3)Gal(b1-4)[Fuc(a1-3)]GlcNAc
# How it was run: as §1
# [23] = molecular target: GlcNAc(a1-6)Gal(b1-4)GlcNAc
# How it was run: as §1
# [24] = molecular target: GlcNAc(b1-2)Gal(b1-3)GalNAc
# How it was run: as §1
# [25] = molecular target: GlcNAc(b1-2)Man(a1-3)[GlcNAc(b1-2)Man(a1-6)]Man(b1-4)GlcNAc(b1-4)GlcNAc
# How it was run: as §1
# [26] = molecular target: GlcNAc(b1-2)Man(a1-3)[GlcNAc(b1-2)Man(a1-6)]Man(b1-4)GlcNAc(b1-4)[Fuc(a1-6)]GlcNAc
# How it was run: as §1
# [27] = molecular target: GlcNAc(b1-2)Man(a1-3)[GlcNAc(b1-4)][GlcNAc(b1-2)Man(a1-6)]Man(b1-4)GlcNAc(b1-4)GlcNAc
# How it was run: as §1
# [28] = molecular target: GlcNAc(b1-2)Man(a1-3)[GlcNAc(b1-4)][GlcNAc(b1-2)Man(a1-6)]Man(b1-4)GlcNAc(b1-4)[Fuc(a1-6)]GlcNAc
# How it was run: as §1
# [29] = molecular target: GlcNAc(b1-2)[GlcNAc(b1-4)]Man(a1-3)[GlcNAc(b1-2)Man(a1-6)]Man(b1-4)GlcNAc(b1-4)GlcNAc
# How it was run: as §1
# [30] = molecular target: GlcNAc(b1-2)[GlcNAc(b1-4)]Man(a1-3)[GlcNAc(b1-4)][GlcNAc(b1-2)Man(a1-6)]Man(b1-4)GlcNAc(b1-4)GlcNAc
# How it was run: as §1
# [31] = molecular target: GlcNAc(b1-2)[GlcNAc(b1-4)]Man(a1-3)[GlcNAc(b1-4)][GlcNAc(b1-2)[GlcNAc(b1-6)]Man(a1-6)]Man(b1-4)GlcNAc(b1-4)GlcNAc
# How it was run: as §1
# [32] = molecular target: GlcNAc(b1-2)[GlcNAc(b1-4)]Man(a1-3)[GlcNAc(b1-4)][GlcNAc(b1-2)[GlcNAc(b1-6)]Man(a1-6)]Man(b1-4)GlcNAc(b1-4)[Fuc(a1-6)]GlcNAc
# How it was run: as §1
# [33] = molecular target: GlcNAc(b1-2)[GlcNAc(b1-6)]Man(a1-6)[GlcNAc(b1-2)Man(a1-3)]Man(b1-4)GlcNAc(b1-4)GlcNAc
# How it was run: as §1
# [34] = molecular target: GlcNAc(b1-2)[GlcNAc(b1-6)]Man(a1-6)[GlcNAc(b1-2)Man(a1-3)]Man(b1-4)GlcNAc(b1-4)[Fuc(a1-6)]GlcNAc
# How it was run: as §1
# [35] = molecular target: GlcNAc(b1-2)[GlcNAc(b1-6)]Man(a1-6)[GlcNAc(b1-4)][GlcNAc(b1-2)Man(a1-3)]Man(b1-4)GlcNAc(b1-4)GlcNAc
# How it was run: as §1
# [36] = molecular target: GlcNAc(b1-3)Fuc
# How it was run: as §1
# [37] = molecular target: GlcNAc(b1-3)Gal
# How it was run: as §1
# [38] = molecular target: GlcNAc(b1-3)Gal(b1-3)GalNAc
# How it was run: as §1
binder,measurement,setting,value
GS7807Q-bfa-507-19-507 (Bacteroides fragilis) (protein) ASCNKFDDLNTNPDAATKVTAPMLATKLILNITQQGSAKNFVYHSMLSKQIAWSENASDEQYNLFGRTDFDGYTILTNCQKMVDAANEGDKDSYAALAKFMKAYKLFYKSLEVGDIPYSDALKGEEGVQKPKYDTQKEVMRQVLEDLEEAYTLFSSGSDFDGDPIFGGDTENWKKTVVAFELKVLTHLCKKDTDADLKVKERFARLVSSGSLMTSNADNFQLVYSNKAGQLYPFYYTQNKHSDYLMMSSVIIDNLKKFNDYRMFYYASPAKAQTDKGIKDSEWDAYLSIDPSDSYSNISVLYGKGEFCLANLRYTRVPEGEPLMRLSYAEQNFILAEGAVRGWISEDASTYYKKGIEASMNFIADNTPDKEEYTHGRTITQEYIQEYLAQPVIQLSGDKEKDLEMILLQRYLASFLQHPYDAYYDYRRTGYPVLPINPSTNLNTEKNKIPTRWMYPEAEFSYNPDNANEAVQRQYNGSDDVNKLMWILQ,glycan array binding signal (z-score),[1],-0.654
same,glycan array binding signal (z-score),[2],-0.12
same,glycan array binding signal (z-score),[3],1.05
same,glycan array binding signal (z-score),[4],-0.077
same,glycan array binding signal (z-score),[5],-0.527
same,glycan array binding signal (z-score),[6],-0.453
same,glycan array binding signal (z-score),[7],0.276
same,glycan array binding signal (z-score),[8],-1.16
same,glycan array binding signal (z-score),[9],0.363
same,glycan array binding signal (z-score),[10],-0.436
same,glycan array binding signal (z-score),[11],0.504
same,glycan array binding signal (z-score),[12],-0.131
same,glycan array binding signal (z-score),[13],0.457
same,glycan array binding signal (z-score),[14],0.23
same,glycan array binding signal (z-score),[15],-0.776
same,glycan array binding signal (z-score),[16],-0.619
same,glycan array binding signal (z-score),[17],-0.22
same,glycan array binding signal (z-score),[18],-0.604
same,glycan array binding signal (z-score),[19],0.18
same,glycan array binding signal (z-score),[20],0.346
same,glycan array binding signal (z-score),[21],-0.295
same,glycan array binding signal (z-score),[22],3.02
same,glycan array binding signal (z-score),[23],-0.11
same,glycan array binding signal (z-score),[24],0.081
same,glycan array binding signal (z-score),[25],-0.879
same,glycan array binding signal (z-score),[26],-1.06
same,glycan array binding signal (z-score),[27],-0.785
same,glycan array binding signal (z-score),[28],-0.718
same,glycan array binding signal (z-score),[29],-0.054
same,glycan array binding signal (z-score),[30],-0.304
same,glycan array binding signal (z-score),[31],-0.365
same,glycan array binding signal (z-score),[32],-0.338
same,glycan array binding signal (z-score),[33],0.342
same,glycan array binding signal (z-score),[34],0.275
same,glycan array binding signal (z-score),[35],-0.085
same,glycan array binding signal (z-score),[36],0.209
same,glycan array binding signal (z-score),[37],-0.095
same,glycan array binding signal (z-score),[38],0.348

# Some of the entries so far, bar-delimited:
binder | measurement | setting | value
GS7807Q-bfa-507-19-507 (Bacteroides fragilis) (protein) ASCNKFDDLNTNPDAATKVTAPMLATKLILNITQQGSAKNFVYHSMLSKQIAWSENASDEQYNLFGRTDFDGYTILTNCQKMVDAANEGDKDSYAALAKFMKAYKLFYKSLEVGDIPYSDALKGEEGVQKPKYDTQKEVMRQVLEDLEEAYTLFSSGSDFDGDPIFGGDTENWKKTVVAFELKVLTHLCKKDTDADLKVKERFARLVSSGSLMTSNADNFQLVYSNKAGQLYPFYYTQNKHSDYLMMSSVIIDNLKKFNDYRMFYYASPAKAQTDKGIKDSEWDAYLSIDPSDSYSNISVLYGKGEFCLANLRYTRVPEGEPLMRLSYAEQNFILAEGAVRGWISEDASTYYKKGIEASMNFIADNTPDKEEYTHGRTITQEYIQEYLAQPVIQLSGDKEKDLEMILLQRYLASFLQHPYDAYYDYRRTGYPVLPINPSTNLNTEKNKIPTRWMYPEAEFSYNPDNANEAVQRQYNGSDDVNKLMWILQ | glycan array binding signal (z-score) | [16] | -0.619
same | glycan array binding signal (z-score) | [29] | -0.054
same | glycan array binding signal (z-score) | [30] | -0.304
